Experimental data as given in article PMC12016936.

Sequences of proteins named here, by UniProt entry; tags and fusion partners are left off.
UniProt O43791: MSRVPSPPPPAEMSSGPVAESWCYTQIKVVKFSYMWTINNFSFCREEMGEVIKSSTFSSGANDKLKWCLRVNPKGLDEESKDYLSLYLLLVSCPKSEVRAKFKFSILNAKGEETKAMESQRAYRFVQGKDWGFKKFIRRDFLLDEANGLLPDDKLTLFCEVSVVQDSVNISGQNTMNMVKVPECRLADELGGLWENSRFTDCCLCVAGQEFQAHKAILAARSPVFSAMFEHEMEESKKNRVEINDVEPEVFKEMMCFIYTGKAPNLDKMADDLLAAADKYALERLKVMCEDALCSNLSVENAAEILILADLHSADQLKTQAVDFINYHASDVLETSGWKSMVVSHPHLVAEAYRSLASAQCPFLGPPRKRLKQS
UniProt O75925: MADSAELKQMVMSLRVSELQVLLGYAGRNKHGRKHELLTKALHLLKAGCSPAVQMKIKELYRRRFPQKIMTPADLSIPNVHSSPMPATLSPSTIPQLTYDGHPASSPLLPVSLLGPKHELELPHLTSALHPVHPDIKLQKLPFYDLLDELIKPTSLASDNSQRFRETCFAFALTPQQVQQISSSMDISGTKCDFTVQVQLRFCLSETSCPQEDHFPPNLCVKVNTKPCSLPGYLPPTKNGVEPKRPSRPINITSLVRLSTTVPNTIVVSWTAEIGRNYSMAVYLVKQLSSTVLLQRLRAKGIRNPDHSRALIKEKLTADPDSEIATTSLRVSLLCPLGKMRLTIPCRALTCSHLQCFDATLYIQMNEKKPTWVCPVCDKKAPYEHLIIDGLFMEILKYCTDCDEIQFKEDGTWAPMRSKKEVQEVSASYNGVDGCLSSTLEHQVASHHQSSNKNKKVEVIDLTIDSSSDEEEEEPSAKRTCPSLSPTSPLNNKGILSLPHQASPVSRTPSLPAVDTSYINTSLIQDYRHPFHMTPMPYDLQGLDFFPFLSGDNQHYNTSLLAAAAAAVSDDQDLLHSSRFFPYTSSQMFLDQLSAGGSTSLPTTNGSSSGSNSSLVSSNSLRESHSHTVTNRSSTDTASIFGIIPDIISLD
UniProt Q12888: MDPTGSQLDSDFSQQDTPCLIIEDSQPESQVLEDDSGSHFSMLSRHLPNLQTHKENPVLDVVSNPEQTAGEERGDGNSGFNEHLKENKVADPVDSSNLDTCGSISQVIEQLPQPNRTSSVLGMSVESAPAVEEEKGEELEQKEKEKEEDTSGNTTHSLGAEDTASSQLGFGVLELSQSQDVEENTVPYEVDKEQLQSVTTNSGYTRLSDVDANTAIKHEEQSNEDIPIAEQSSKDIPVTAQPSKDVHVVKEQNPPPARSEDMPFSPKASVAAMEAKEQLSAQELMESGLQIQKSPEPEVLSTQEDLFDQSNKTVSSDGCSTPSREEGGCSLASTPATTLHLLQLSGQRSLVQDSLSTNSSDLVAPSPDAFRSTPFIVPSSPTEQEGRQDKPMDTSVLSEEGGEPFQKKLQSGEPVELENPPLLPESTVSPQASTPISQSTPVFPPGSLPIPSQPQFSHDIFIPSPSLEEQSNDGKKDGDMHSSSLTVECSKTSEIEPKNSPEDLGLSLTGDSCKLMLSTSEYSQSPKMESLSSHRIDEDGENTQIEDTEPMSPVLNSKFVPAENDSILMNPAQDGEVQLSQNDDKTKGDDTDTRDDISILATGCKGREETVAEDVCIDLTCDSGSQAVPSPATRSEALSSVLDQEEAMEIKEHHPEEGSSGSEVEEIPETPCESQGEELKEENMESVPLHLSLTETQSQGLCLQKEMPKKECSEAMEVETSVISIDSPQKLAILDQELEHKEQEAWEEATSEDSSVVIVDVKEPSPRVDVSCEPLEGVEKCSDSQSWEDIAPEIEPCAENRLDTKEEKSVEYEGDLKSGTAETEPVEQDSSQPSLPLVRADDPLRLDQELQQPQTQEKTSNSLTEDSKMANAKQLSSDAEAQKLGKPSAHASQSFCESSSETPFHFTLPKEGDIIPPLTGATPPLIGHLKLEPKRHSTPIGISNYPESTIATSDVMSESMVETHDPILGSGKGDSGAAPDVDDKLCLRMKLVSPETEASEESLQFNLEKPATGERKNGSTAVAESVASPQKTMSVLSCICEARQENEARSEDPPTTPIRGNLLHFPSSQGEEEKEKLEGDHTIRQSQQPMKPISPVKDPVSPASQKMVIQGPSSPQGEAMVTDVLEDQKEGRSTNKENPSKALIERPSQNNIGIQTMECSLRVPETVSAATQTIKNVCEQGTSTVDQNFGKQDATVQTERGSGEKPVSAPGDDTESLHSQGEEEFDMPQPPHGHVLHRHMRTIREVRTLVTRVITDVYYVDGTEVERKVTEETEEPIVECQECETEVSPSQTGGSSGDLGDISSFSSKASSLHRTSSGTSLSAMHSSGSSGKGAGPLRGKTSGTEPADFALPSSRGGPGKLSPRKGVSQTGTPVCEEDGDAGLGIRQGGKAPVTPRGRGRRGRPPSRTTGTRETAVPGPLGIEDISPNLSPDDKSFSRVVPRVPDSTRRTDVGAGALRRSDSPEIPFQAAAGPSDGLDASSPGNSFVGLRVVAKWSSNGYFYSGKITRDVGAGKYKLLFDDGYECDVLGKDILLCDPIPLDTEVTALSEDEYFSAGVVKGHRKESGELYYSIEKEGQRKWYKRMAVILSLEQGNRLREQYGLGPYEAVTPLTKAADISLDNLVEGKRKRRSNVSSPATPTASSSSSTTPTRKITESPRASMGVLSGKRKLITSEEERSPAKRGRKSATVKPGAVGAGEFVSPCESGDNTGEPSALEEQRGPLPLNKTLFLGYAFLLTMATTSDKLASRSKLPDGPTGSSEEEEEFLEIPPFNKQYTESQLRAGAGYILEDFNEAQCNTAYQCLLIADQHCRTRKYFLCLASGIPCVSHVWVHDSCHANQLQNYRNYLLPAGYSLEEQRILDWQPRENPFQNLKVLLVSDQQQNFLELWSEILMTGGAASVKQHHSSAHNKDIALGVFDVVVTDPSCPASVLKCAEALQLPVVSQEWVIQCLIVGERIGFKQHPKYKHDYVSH

Target: 3×FLAG-SPOP (UniProt O43791)
Test: affinity purification with mass spectrometry; immunoprecipitation of 3×FLAG-SPOP complexes from stable PC-3 cells before and after olaparib treatment (also after PIAS1 knockdown), mass spectrometry

Row | binding | Substance
1 | binds | PIAS1 (endogenous) (from UniProt O75925 1-651)
2 | binds | p53-binding protein 1 (from UniProt Q12888 1-1972)

No constants are given. Whether binding was seen depends on the method and setting. Binding seen in cells or lysates may run through a third protein. Here binding means that the protein was enriched with, or labelled near, the bait; the list need not be complete.
